Experimental data as given in PubChem BioAssay AID595 (National Center for Advancing Translational Sciences (NCATS), 2007).
Hit rate of the full screen: of about 71,000 compounds, about 310 (0.44%) were called active. The inconclusive results got no clear call from the source; some entries with a clear call stand among them for comparison. Calls follow the shape of the dose curve; as a rule, active = well fitted curve in either direction with a large enough effect; inconclusive = small, poorly fitted or top-dose-only effect, or another doubt; inactive = flat fitted curve, though single readings scatter. Potencies beside an inconclusive call are fits to weak or partial responses and may not hold up.

System: Hsp90 C-terminal peptide / TPR2A (Hop) interaction, human
Experiment: qHTS Assay for Disrupters of an Hsp90 Co-Chaperone Interaction
Settings: AlphaScreen TPR2A-His6 binding biotin-Hsp90 C-terminal peptide; activity change, negative = inhibition: at 57 µM (top of the series) unless noted
Excerpt: NIH Chemical Genomics Center [NCGC]
NIH Molecular Libraries Screening Centers Network [MLSCN]
Hsp90 (heat shock protein 90) is the essential molecular chaperone and it accounts for 1-2% of all cytosolic proteins and is critical for the activity of diverse cellular proteins that are involved in a variety of cellular processes, including development, cell cycle, and steroid hormone signaling. Its client proteins include signaling kinases such as IGF1R, Akt, v-Src, Raf-1; regulators of cell survival such as Bcr-Abl; and transcription factors such as mutated p53, estrogen and progesterone receptors. Hsp90 has emerged as an important target for cancer treatment due to its essential role in maintaining transformation and regulating the function of oncogenic signaling proteins.
The in vivo function of Hsp90 is regulated by the binding and hydrolysis of ATP at its N-terminal. Geldanamycin binds to ATP site and inhibit Hsp90 function. Geldanamycin and its analogues are under clinical trials in cancer patients.
This domain contains the binding site for tetratricopeptide repeat (TPR) domains on HOP (Hsp Organizing Protein). TPR is a structural motif used by a significant number of cochaperones by which the in vivo function of Hsp90 is regulated. TPR2A on HOP binds specifically to MEEVD motif of the C-terminal of Hsp90.
A homogeneous AlphaScreen is developed to assess the interaction between TPR2A and MEEVD motif of the C-terminal of Hsp90 by using the isolated TPR2A domain and a synthesized 20mer Hsp90 C terminal peptide. AlphaScreen is two bead-based proximity-dependent chemical energy transfer luminescent assay platform. TPR2A-His-6 and biotinylated Hsp90 C terminal peptide will bring streptavidin donor beads and nickel chelate acceptor beads to a proximity range (less than 200 nm), and subsequently lead a chemical luminescent reaction upon exciting donor beads with 680 nm laser. Inhibition of TPR2A and MEEVD motif interaction by small molecules could attenuate or abolish this chemical luminescent reaction.
Counter screening: Biotinylated-His-6 (PerkinElmer) can be utilized as a counter screen, as it serves as a linker to bring streptavidin beads and nickel chelate beads together. The counter screen can exclude alpha screen platform false positives due to small molecules being metal chelators, biotin analogues and imidazole analogues, or due to interfering with oxygen release from donor beads. Such an assay should be utilized to qualify any activity observed in this screen.
NCGC Assay Protocol Summary:
The assay was performed on 1536-well white plate (untreated solid bottom). Liquids were dispensed by 1536-well plate washer (Kalypsys, San Diego, CA). Plates were read on EnVision (PerkinElmer, Boston, MA).TPR2A-His6 was produced using a bacteria expression system and purified using a well developed method (Ghosh et al., 2000). Hsp90 C terminal 20-mer peptide with or without an N-terminal biotin group are synthesized using automated solid phase synthesis by the Yale Keck facility. The composition of assay buffer was (in mM) 25 HEPES, 100 KCl, 2 MgCl2 and 2 DTT; 0.1% BSA and 0.01% Tween-20. TPR2A-His6 binding to biotin-Hsp90 will bring streptavidin donor beads and nickel chelate acceptor beads (PerkinElmer) together and can be measured by Alpha reading by EnVision (PerkinElmer). Free Hsp90 blocks biotin-Hsp90 binding to TPR2 and serves as a positive control in the current asssay.
The assay was performed at room temperature. All compounds were screened as titrations from […] to 46 uM final concentration. The assay was performed in 1536-well format plates (untreated white solid bottom, Corning Inc.) as follows:
Sequence,Parameter,Value,Description
1,Reagent,3 uL TPR2A-His6,Final concentration was 5nM
2,Compound,23 nL,Final titration was from 0.7 nM to 46 uM
3,Time,15 minutes,Room temperature
4,Reagent,1 uL biotin-Hsp90,With and without free Hsp90. Final concentration was 10 nM for biotin-Hsp90 and 10uM for free Hsp90.
5,Time,1 hour,Room temperature
[…]
% is scaled to controls: 0 for no effect and ±100 for the full control effect; potency is read from the fitted curve at half-maximal effect.

Row | SMILES | activity change, negative = inhibition | Potency
1 | CCc1nc(SCc2ccccn2)c2c(=O)n(C)c(=O)n(C)c2n1 | inactive | 
2 | O=C(/C=C\Nc1ccccn1)c1ccccc1 | inactive | 
3 | Cc1cc(C)c2c(CN3CCN(CCO)CC3)cc(=O)oc2c1 | inactive | 
4 | CCOC(=O)c1ccc(Oc2nc(SC)nc(N(C)C)n2)cc1 |  | inconclusive: 3.98 µM [activator, single point]
5 | Nc1nc2ccc(Cl)cc2c2nc(-c3ccco3)nn12 | inconclusive: 62.6% | 
6 | CCOC(=O)c1[nH]c(C)c(C(=O)NC2CCCCC2)c1C | inconclusive: 43.7% | 
7 | COc1ccc(OC)c(N2C(=O)C(Cl)=C(N3CCCCC3)C2=O)c1 | inactive: -7.17% [at 11 µM] | 
8 | COc1ccc(Nc2cc(C(=O)NCCCN3CCN(C)CC3)c3ccccc3n2)c(OC)c1 | inactive | 
9 | CCOC(=O)C(C)Sc1nc(-c2ccco2)cc(C(F)(F)F)c1C#N (stereo unspecified) |  | inconclusive: 25.1 µM [activator, single point]
10 | COc1ccc(OC)c(Nc2nc(-c3ccc(O)c(O)c3)cs2)c1 |  | inconclusive: 20 µM [inhibitor, partial curve]
11 | COc1ccc(NCc2nnc(SCC(=O)Nc3cc(C(F)(F)F)ccc3Cl)o2)cc1 | inconclusive: -32.2% | 
12 | OC[C@@H]1O[C@H](n2cnc3c(/C=C(\O)c4ccccc4)ncnc32)[C@H](O)[C@@H]1O |  | inconclusive: 1.58 µM [inhibitor, single point]
13 | CCCCNC(=O)CSc1nc2ccc(N3CCOCC3)cc2c(=O)n1CCc1ccccc1 | inactive | 
14 | Nc1ncnc2c1c(-c1ccc(Oc3ccccc3)cc1)cn2C1CCCC1 |  | inconclusive: 31.6 µM [inhibitor, partial curve]
15 | O=C(COc1ccc(Cl)cc1)Nc1ccccc1C(=O)NCc1ccco1 | inconclusive: 42.6% | 
16 | O=C(Nc1ccncc1)C1(c2ccccc2)CCCC1 | inconclusive: 48.5% | 
17 | c1ccc(CC2CCN(c3nc4ccccc4n4nnnc34)CC2)cc1 |  | inconclusive: 31.6 µM [activator, single point]
18 | COC(=O)c1c(C)nc(C)c2c(=O)oc3ccccc3c12 | inactive | 
19 | CCCCC[C@H](O)/C=C\[C@H]1[C@H](C/C=C\CCCC(=O)O)[C@@H](O)C[C@H]1O (tested in a mixture with another compound) | inactive | 
20 | CN(C)c1ccc(CN(C(=O)COc2ccc(F)cc2)C2CCS(=O)(=O)C2)cc1 (stereo unspecified) | inconclusive: 28.4% | 
21 | O=C1c2ccccc2C(=O)N1CCc1nn[nH]n1 | inconclusive: 39.2% | 
22 | N#Cc1nc(COc2ccc(Cl)cc2)oc1N1CCCCCC1 |  | inconclusive: 12.6 µM [inhibitor, partial curve]
23 | c1ccc(OCCSc2nnnn2-c2ccccc2)cc1 |  | inconclusive: 31.6 µM [activator, single point]
24 | COC(=O)[C@@]1(Cc2ccccc2)[C@H]2c3cc(C(=O)N(C)C)n(Cc4ccsc4Br)c3C[C@H]2CN1C(=O)c1ccccc1 | inactive | 
25 | Cc1cc(C)n(-c2nc(NCCO)c3c4c(sc3n2)CCCC4)n1 | inactive | 
26 | O=C(N1CCCCCC1)N1CCN(C(=O)N2CCCCC2)CC1 | inconclusive: 49.2% | 

Row | SMILES | activity change, negative = inhibition | Potency
27 | O=C(CCCSc1nc(-c2ccco2)cc(C(F)(F)F)n1)Nc1ccc2c(c1)OCO2 | inactive | 
28 | CC(C)c1cccc2nc3c(c([Si](C)(C)C)c12)Cn1c-3cccc1=O | inconclusive: 128% | 
29 | CC(C)NC[C@@H](O)COc1cccc2ccccc12 | inconclusive: 70.8% [at 26 µM] | 
30 | CCOC(=O)CN1C(=O)C(C)(C)Oc2ccc(C(=O)Nc3ccccc3)cc21 | inconclusive: 53.6% | 
31 | Cc1ccc(C(=O)Cn2nnc(-c3ccccc3-n3cnnn3)n2)cc1 | inconclusive: 60.6% | 
32 | COc1ccc(N2CCN(c3nc4c(c(=O)n(C)c(=O)n4C)n3Cc3ccccc3)CC2)cc1 |  | inconclusive: 25.1 µM [inhibitor, single point]
33 | CC(C)OCCCN1C(=O)c2[nH]nc(-c3ccccc3O)c2C1c1cccc(Cl)c1 (stereo unspecified) | inconclusive: 22.1% | 
34 | COc1ccccc1CNc1ncnc2ccc(-c3cccc(C#N)c3)cc12 | inactive | 
35 | Cc1ccccc1N(Cc1nnc2n1CCCCC2)C(=O)Nc1ccccc1 | inconclusive: 34.7% | 
36 | COc1cc(S(=O)(=O)N2CCOCC2)ccc1NC(=O)CSc1nnc(N)s1 | inconclusive: 30.3% | 
37 | COc1ccccc1N1CCN(Cc2nc(N)nc(Nc3ccc(C)cc3)n2)CC1 |  | inconclusive: 31.6 µM [inhibitor, single point]
38 | Cc1cc(NCCCn2ccnc2)n2c(nc3ccccc32)c1C#N | inconclusive: 53.4% | 
39 | COc1ccccc1-c1nc(C#N)c(N2CCN(Cc3ccccc3)CC2)o1 |  | inconclusive: 25.1 µM [inhibitor, partial curve]
40 | O=C(c1ccc(=O)[nH]c1)N(Cc1ccco1)C1(C(=O)NC2CCCC2)CCCCC1 | inconclusive: 48.7% | 
41 | O=C1CN(C(=O)CCCc2c[nH]c3ccccc23)c2ccccc2N1 | inconclusive: 15.1% | 
42 | COc1ccc(-n2c(Cc3cccn3C)nnc2SCC(=O)N2CCCC2)cc1 | inactive | 
43 | Cc1cc2ccccc2n1CCNC(=O)C1CCCC1 | inconclusive: 25.7% | 
44 | COc1c(C)cc(Br)cc1C(=O)Nc1ccc(N2CCN(S(C)(=O)=O)CC2)cc1 | inconclusive: 39.3% | 
45 | COc1ccc(-c2cc(C(=O)Nc3cnn(Cc4ccccc4C)c3)no2)cc1OC | inconclusive: 39.6% | 
46 | CC1CCN(c2oc(Cc3cccc4ccccc34)nc2C#N)CC1 |  | inconclusive: 12.6 µM [inhibitor, partial curve]
47 | Nc1nc(N)nc(-c2ccccn2)n1 |  | active: 7.94 µM
48 | O=C(NC1CCCC1)c1ccc(S(=O)(=O)N2CCCC2)cc1 | inconclusive: 50.4% | 
49 | COc1ccc(N2CC(C(=O)NCCC3=CCCCC3)CC2=O)cc1 (stereo unspecified) | inconclusive: 63.6% | 
50 | CCOC(=O)c1ccc(Nc2cc(C)nc(N3CCOCC3)n2)cc1 | inactive | 
51 | Cc1c(NC(=O)c2cc(-c3ccccc3)on2)c(=O)n(-c2ccccc2)n1C |  | inconclusive: 31.6 µM [inhibitor, single point]
